# Experimental data taken from PubChem BioAssay AID493014 (National Center for Advancing Translational Sciences (NCATS), 2011).
# Values joined by “and” are separate entries in the source; they are usually repeats but may differ in a detail not shown here. Identical values can stand only once. This is one part of the list. These are further read-outs of the screen, such as a control signal, another cell line or another target. No call is given for them. Compounds called inactive in the main read-out are mostly missing here. Potencies come from curve fits of mixed quality, noted in brackets.
# Test: qHTS Assay to Find Inhibitors of Chronic Active B-Cell Receptor Signaling
# Details: ABC-DLBCL IkBa-CBG/CBR reporter, luminescence ratio (green luciferase fused to IkBa over red control in TMD8 lymphoma cells), 4 h
# How it was run: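 Concentration-response series (up to 46 uM) were applied to TMD8 dual-reporter cells for 4 h at 37C with doxycycline. Green/red ratio, after filter-overlap correction, defined %Activity; red signal alone was normalised to basal cells and zero luminescence.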
# [1] = measured here: CBR red luminescence, cell number
# [2] = measured here: IkBa-CBG green luminescence
SMILES,AC50 [1],AC50 [2]
Nc1ccc(Cl)cc1C(=O)OCC(=O)NC1CCS(=O)(=O)C1 (configuration not stated),"20 µM [falling, single point]",–
C=CCOc1c(CNc2cccc(C(=O)O)c2)cccc1OCC,"8.91 µM [falling, single point]",–
O=C(c1ccco1)N1CCN(C(=O)c2cc(-c3ccccc3F)no2)CC1,"11.2 µM [rising, partial curve]",–
COc1cc(C(=O)NCCc2ccccc2)ccc1OCC(=O)N1CCOCC1,"23.1 µM [falling, single point]",–
CC1CCc2nn(CC(=O)NCc3ccco3)cc2C1 (configuration not stated),"1.03 µM [rising, partial curve, poor fit]",–
Cc1ccc(/C=N\Nc2nc3ccc(Cl)cc3[nH]2)o1,"7.94 µM [falling, partial curve]",–
Cc1cccc(NC(=O)CCC(=O)OCc2ccc(Br)cc2)c1,"7.31 µM [rising, partial curve, poor fit]",–
CCN1CCN(C(=S)c2ccc(OCC(=O)NCc3ccccc3)cc2)CC1,"20 µM [rising, partial curve, poor fit]",–
CCN1C(=O)CS/C1=N\c1nccs1,"0.731 µM [falling, full curve, poor fit]",–
Oc1ccccc1-c1nc(NCc2cccnc2)c2ccccc2n1,"8.91 µM [falling, partial curve]","3.55 µM [rising, partial curve]"
COC(=O)c1coc(-c2ccc(C)cc2)c1C(=O)OC,"35.5 µM [rising, single point]",–
O=C(COc1ccccc1C(=O)NCc1ccccc1)Nc1ccccc1,"4.61 µM [falling, partial curve, poor fit]",–
Cc1cccc(NC(=O)Cn2nnc3ccccc32)c1,"1.41 µM [rising, full curve]",–
COc1ccc(OCCN2CCN(C(=O)c3ccc(OC)c(OC)c3)CC2)cc1,"35.5 µM [rising, single point]",–
Cc1ccc(C(=O)C2CCN(C(=O)c3ccc(C)cc3)CC2)cc1,"10 µM [falling, partial curve, poor fit]",–
Cc1cccc(NC(=O)Cc2ccc(F)cc2)c1,"0.0517 µM [rising, full curve, poor fit]",–
C/C(=N\NC(=O)c1ccc([N+](=O)[O-])cc1Cl)c1ccccc1,"6.31 µM [rising, full curve, poor fit]",–
C/C(N)=C(/C#N)C(=O)COC(=O)c1cc(-c2ccc(C)cc2)nc2ccccc12,"1.64 µM [rising, partial curve, poor fit]",–
O=C(OCCN1CCCCC1)c1ccccc1Br,"0.1 µM [rising, full curve, poor fit]",–
COCCNC(=O)/C(C#N)=C/C=C/c1ccccc1[N+](=O)[O-],"22.4 µM [falling, single point]",–
CCOc1ccc(CN(C)C(=O)CCl)cc1,"10 µM [falling, partial curve]",–
COC(=O)CSc1nnc(NC(=O)C2CC(=O)N(c3ccc(F)cc3)C2)s1 (configuration not stated),"35.5 µM [falling, single point]",–

SMILES,AC50 [1],AC50 [2]
COc1ccc(NC(=O)c2ccc([N+](=O)[O-])o2)cc1,"14.1 µM [falling, single point]",–
Cc1ccc(C(=O)c2oc3ccccc3c2NC(=O)c2cc(-c3ccccc3O)n[nH]2)cc1,"11.6 µM [falling, partial curve]","23.1 µM [falling, partial curve, poor fit]"
Cc1ccc(C(=O)/C=C/NNC(=O)c2ccccc2O)cc1,"12.6 µM [falling, partial curve]",–
O=C(CNC(=S)N(Cc1ccccc1)Cc1ccccc1F)NCc1ccccc1,"17.8 µM [falling, single point]",–
O=C(NC(=S)N1CCN(c2ccc(C(F)(F)F)cc2[N+](=O)[O-])CC1)c1cccs1,–,"18.4 µM [falling, single point]"
CCc1nn2cc(-c3ccccc3)nc2s1,"11.6 µM [falling, partial curve, poor fit]",–
CCn1c2ccccc2c2nnc(SCCCn3c(=O)[nH]c4ccccc43)nc21,"2.82 µM [falling, full curve, poor fit]",–
O=C(O)c1ccc(-c2nc(-c3ccccc3)c(-c3ccccc3)[nH]2)cc1,"23.1 µM [falling, single point]",–
Cn1c(=O)c2c(nc(NN=C3CCCC3)n2C)n(C)c1=O,"1.12 µM [falling, full curve, poor fit]",–
CN(C)/C=N/n1cnc2ccccc2c1=O,"35.5 µM [rising, single point]",–
CCOC(=O)C1=CNS(=O)(=O)NC1c1ccc(C(F)(F)F)cc1 (configuration not stated),"6.51 µM [rising, single point]",–
C=CCn1c(SCC(=O)Nc2ccc(NC(C)=O)cc2)nc2sc(C)c(C)c2c1=O,"3.66 µM [rising, partial curve]",–
C/C(=N/NC(=O)c1cc(C)[nH]n1)c1ccco1,"3.98 µM [falling, full curve]",–
O=C(Nc1ncc([N+](=O)[O-])s1)c1cccs1,"1.12 µM [falling, full curve] and 2.82 µM [falling, full curve, poor fit]",–
Cc1cccc(C(=O)N/N=C/c2ccc[nH]2)c1,"18.4 µM [falling, single point]",–
COc1cc(C(=O)O[C@H]2CC(C)=CC[C@@]3(C)CC[C@@](O)(C(C)C)[C@H]23)ccc1O,"35.5 µM [rising, single point]",–
CCc1ccc(NC(=O)CN(c2cc(C)cc(C)c2)S(=O)(=O)c2c(C)[nH]c(=O)[nH]c2=O)cc1,"6.31 µM [rising, single point]",–
CC(C)CC(=O)N(c1nnc(-c2cccnc2)s1)C1CCCC1,"25.1 µM [rising, single point]",–
O=C(CCc1ccc(O)c(O)c1)NNC(=S)NCCc1ccccc1,"4.11 µM [rising, single point]",–
COc1ccc(CN2C(=O)C(Cc3ccccc3)Nc3ncnc(N4CCc5ccccc5C4)c32)cc1 (configuration not stated),"10.3 µM [falling, partial curve]",–
Nc1ncnc2c1ncn2[C@@H]1O[C@H](CNC(=O)[C@@H](N)C2CCCCC2)[C@@H](O)[C@H]1O,"18.4 µM [rising, single point]","5.8 µM [falling, partial curve, poor fit]"
C[C@@H]1CN([C@H](C)CO)C(=O)c2cc(NS(=O)(=O)c3ccc(F)cc3)ccc2O[C@@H]1CN(C)Cc1ccc(Cl)c(Cl)c1,"29.1 µM [falling, single point]",–

SMILES,AC50 [1],AC50 [2]
CCCCC(C(=O)NC1CCCC1)N(Cc1ccco1)C(=O)Cn1nnc(-c2ccc(F)cc2)n1 (configuration not stated),"0.231 µM [falling, full curve, poor fit]",–
CN(C)c1cccc(C(=O)NCc2ccc3c(c2)OCO3)c1,"35.5 µM [falling, single point]",–
Cc1ccc(Nc2oc(C)nc2C#N)cc1,"8.91 µM [falling, partial curve, poor fit]",–
COc1ccccc1CC(=O)Nc1ccc2[nH]ncc2c1,"35.5 µM [falling, partial curve, poor fit]",–
Cc1ccc(-n2cc(-c3ccc([N+](=O)[O-])cc3)[nH]c2=S)c(C)c1,"1.84 µM [rising, full curve, poor fit]",–
CC(=O)SC(C[N+](=O)[O-])c1cn(C(C)=O)c2ccccc12 (configuration not stated),"35.5 µM [falling, single point]",–
O=C(Nc1nc2ccc(SC(F)F)cc2s1)c1ccc(NS(=O)(=O)c2ccc(F)c(F)c2)cc1,"18.4 µM [falling, single point]",–
COc1ccc(C(O)c2nc3ccccc3n2C(C)C)cc1 (configuration not stated),"25.1 µM [falling, single point]",–
Cc1cc(C)cc(C(=O)Nc2nc3ccccc3[nH]2)c1,"2 µM [falling, full curve]",–
CNC(=O)c1ccccc1NC(=O)c1c(O)c2c([nH]c1=O)CCCC2,"0.651 µM [rising, partial curve, poor fit]",–
O=C(CSc1ccc(C(F)(F)F)cc1[N+](=O)[O-])Nc1ccc2ccccc2c1,"5.8 µM [rising, partial curve, poor fit]",–
CCOc1ccc(-n2c(CCc3ccccc3)n[nH]c2=S)cc1,"35.5 µM [rising, single point]",–
O=c1c2cn[nH]c2nc(SCc2c(F)cccc2F)n1-c1ccc(Cl)cc1,"22.4 µM [falling, single point]",–
CC(=O)c1ccc(NC(=O)CN2CCN(c3ncccn3)CC2)cc1,"29.1 µM [rising, single point]",–
COc1ccc(CCNC(=S)NC2CCN(Cc3ccccc3)CC2)cc1OC,"0.282 µM [falling, full curve, poor fit]",–
Cc1oc(=O)cc(OCc2ccccc2)c1C,"18.4 µM [rising, single point]",–
COc1ccc(/C=C/C(=O)c2sc(-c3ccccc3)nc2C)cc1,"7.31 µM [rising, partial curve]",–
CSc1ncc(C(=O)Nc2ccc(C)cc2C)c(C)n1,"5.01 µM [rising, full curve, poor fit]",–
Cc1cc(C)c2c(N)c3ccccc3nc2n1,"4.47 µM [falling, partial curve, poor fit]",–
Cc1cc(NS(=O)(=O)c2ccc(NC(=O)/C=C/c3ccccc3Cl)cc2)no1,"20 µM [falling, single point]",–
